At least one compound was matched to its structure with a doubt left. Where a SMILES comes first, the peptide text is derived from it. [ ]: non-standard residue; d: D form. The star is where a group is joined. Phe(4-COOH) = N[C@@H](Cc1ccc(C(=O)O)cc1)C(=O)O; X1 = O=C(COCC(=O)*)Nc1ccc(CCC(=O)N2CCC2=O)cc1; Nva = CCC[C@H](N)C(=O)O
Key:
[1] = biological target: T1, human angiopoietin-2 protein (Homo sapiens, UniProt O15123); assay: Ang2 reverse competition ELISA (Tie-2-Fc coated); format: binding; settings: Table 5, column T; read-out: Ang-2 T IC50
T1 construct: purchased R&D Systems
T1 sequence (O15123 19-496): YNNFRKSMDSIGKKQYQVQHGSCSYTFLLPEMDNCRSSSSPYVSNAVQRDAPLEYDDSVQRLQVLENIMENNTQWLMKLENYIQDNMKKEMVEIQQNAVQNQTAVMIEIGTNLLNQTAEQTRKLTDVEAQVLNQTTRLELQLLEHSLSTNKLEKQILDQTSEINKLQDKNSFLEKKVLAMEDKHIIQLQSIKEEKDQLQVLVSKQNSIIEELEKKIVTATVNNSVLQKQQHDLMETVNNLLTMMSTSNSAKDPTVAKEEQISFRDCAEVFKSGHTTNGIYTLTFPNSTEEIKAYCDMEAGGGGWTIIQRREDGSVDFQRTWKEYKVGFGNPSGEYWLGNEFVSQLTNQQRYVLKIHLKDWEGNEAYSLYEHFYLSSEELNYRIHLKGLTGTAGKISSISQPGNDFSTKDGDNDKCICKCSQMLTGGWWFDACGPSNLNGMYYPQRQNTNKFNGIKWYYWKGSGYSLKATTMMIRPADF
Protocol: Plates were washed three times with washing buffer (0.1% Tween 20, PBS, pH 7.4) and blocked with Superblock, 150 μl/well at RT for 1 hour. Plates were washed three times. […] Plates were washed 3 times, and 50 W of streptavidin HRP (1:200 dilution in Superblock) was added at RT for 20 minutes. […] OD450 nm with a correction wavelength of 540 nm was measured.

[2] = biological target: T1, human angiopoietin-2 protein; assay: Ang2 competitive ELISA (Ang-2 coated, Tie-2-Fc competition); format: binding; settings: Table 5, column P
Protocol: The ability of Ang2 binding compounds to interact with Ang2 was measured by competition with Tie-2. These tests were described in US2008166364 (and also in PCT/IE2007/000110), whose contents are herein incorporated by reference in their entirety. In particular, those portions of PCT/IE2007/000110 and US2008166364 detailing the advantages and disadvantages of various Ang2-binding peptides, and the advantages and disadvantages of covalently linking certain Ang2-binding peptides to catalytic antibodies (and those portions specifically relating to linking to h38C2), as well as the advantages and disadvantages of using specific residues of the respective Ang2-specific peptide as the linking residue (in this context, linking residue meaning the residue covalently linked to the linker (for example as used herein in Example 4)). For competitive ELISA, human angiopoietin-2 protein and Tie-2-Fc (R&D Systems) were reconstituted without carrier protein. Mouse anti-human Tie-2 (Pharmingen) was used as the primary antibody and goat anti-mouse-IgG 1-HRP (Pierce) was used as the secondary antibody. TMB substrate from Pierce was used.
High-binding half-well plates were coated with Ang-2 (100 ng/well) in 50 W PBS and incubated at 4° C. overnight. Plates were washed three times with washing buffer (0.1% Tween 20, PBS, pH 7.4) and blocked with Superblock (Scytek), 1000 μl/well at room temperature (“RT”) for 1 hour. […] Plates were washed 3 times with washing buffer. Then, 50 ul of 0.1 ug/ml mouse anti-human Tie-2 diluted in Superblock added and incubated at RT for 1 hour. Following incubation, 50 ul of 1:5,000 dilution of goat anti-mouse IgG-HRP in Superblock was then added and incubated at RT for one hour. After washing 3 times, 50 W (25 W TMB+25 μl H2O2) was added, and incubated for 3-5 minutes. Color development was monitored and stopped with 25 μl of 2 M H2SO4. OD450 nm with a correction wavelength of 540 nm was measured.

| Structure (SMILES) | IC50 [1] [nM] | IC50 [2] [nM] |
| --- | --- | --- |
| CCC[C@H](NC(=O)[C@@H](NC(=O)[C@H](CCCCNC(=O)COCC(=O)Nc1ccc(CCC(=O)N2CCC2=O)cc1)NC(=O)[C@H](CC(=O)O)NC(=O)[C@H](CC(C)C)NC(=O)[C@H](CCC(=O)O)NC(=O)[C@H](CC(=O)O)NC(=O)[C@H](CC(C)C)NC(=O)[C@@H]1CCCN1C(=O)[C@H](CCC(N)=O)NC(=O)[C@H](Cc1ccc(O)cc1)NC(=O)[C@H](CCCCNC(C)=O)NC(=O)[C@H](CCC(N)=O)NC(C)=O)[C@@H](C)O)C(=O)N[C@@H](Cc1ccc(O)cc1)C(=O)N[C@@H](CC(=O)O)C(=O)N[C@@H](CCC(N)=O)C(=O)N[C@@H](Cc1ccccc1)C(=O)N[C@@H](CCSC)C(=O)N[C@@H](CC(C)C)C(=O)N[C@@H](CCC(N)=O)C(=O)N[C@@H](CCC(N)=O)C(=O)NCC(N)=O [Compound 4041] (Ac-QK(Ac)YQPLDELDK(X1)T[Nva]YDQFMLQQG-NH2) | 1340 | 23.3 |
| CSCC[C@H](NC(=O)[C@H](Cc1ccccc1)NC(=O)[C@H](CCC(N)=O)NC(=O)[C@H](CC(=O)O)NC(=O)[C@H](Cc1ccc(O)cc1)NC(=O)[C@H](CCC(C)C)NC(=O)[C@@H](NC(=O)[C@H](CCCCNC(=O)COCC(=O)Nc1ccc(CCC(=O)N2CCC2=O)cc1)NC(=O)[C@H](CC(=O)O)NC(=O)[C@H](CC(C)C)NC(=O)[C@H](CCC(=O)O)NC(=O)[C@H](CC(=O)O)NC(=O)[C@H](CC(C)C)NC(=O)[C@@H]1CCCN1C(=O)[C@H](CCC(N)=O)NC(=O)[C@H](Cc1ccc(O)cc1)NC(=O)[C@H](CCCCNC(C)=O)NC(=O)[C@H](CCC(N)=O)NC(C)=O)[C@@H](C)O)C(=O)N[C@@H](CC(C)C)C(=O)N[C@@H](CCC(N)=O)C(=O)N[C@@H](CCC(N)=O)C(=O)NCC(N)=O [Compound 4042] | 1340 | 38.1 |
| CSCC[C@H](NC(=O)[C@H](Cc1ccccc1)NC(=O)[C@H](CCC(N)=O)NC(=O)[C@H](CC(=O)O)NC(=O)[C@H](Cc1ccc(O)cc1)NC(=O)[C@H](CC(C)C)NC(=O)[C@@H](NC(=O)[C@H](CCCCNC(=O)COCC(=O)Nc1ccc(CCC(=O)N2CCC2=O)cc1)NC(=O)[C@H](CC(=O)O)NC(=O)[C@H](CC(C)C)NC(=O)[C@H](CCC(=O)O)NC(=O)[C@H](CC(=O)O)NC(=O)[C@H](CC(C)C)NC(=O)[C@@H]1CCCN1C(=O)[C@H](CCC(N)=O)NC(=O)[C@H](Cc1ccc(O)cc1)NC(=O)[C@H](CCCCNC(C)=O)NC(=O)[C@H](CCC(N)=O)NC(=O)CCOCCOCCNC(C)=O)[C@@H](C)O)C(=O)N[C@@H](CC(C)C)C(=O)N[C@@H](CCC(N)=O)C(=O)N[C@@H](CCC(N)=O)C(=O)NCC(N)=O [Compound 4052, (Amido 2-PEG)QKacY QPL DEL DK(0P)T LYD QFMLQQ G] | 134 | 18.1 |
| CSCC[C@H](NC(=O)[C@H](Cc1ccccc1)NC(=O)[C@H](CCC(N)=O)NC(=O)[C@H](CC(=O)O)NC(=O)[C@H](Cc1ccc(C(=O)O)cc1)NC(=O)[C@H](CC(C)C)NC(=O)[C@@H](NC(=O)[C@H](CCCCNC(=O)COCC(=O)Nc1ccc(CCC(=O)N2CCC2=O)cc1)NC(=O)[C@H](CC(=O)O)NC(=O)[C@H](CC(C)C)NC(=O)[C@H](CCC(=O)O)NC(=O)[C@H](CC(=O)O)NC(=O)[C@H](CC(C)C)NC(=O)[C@@H]1CCCN1C(=O)[C@H](CCC(N)=O)NC(=O)[C@H](Cc1ccc(O)cc1)NC(=O)[C@H](CC(N)=O)NC(=O)[C@H](CCC(N)=O)NC(C)=O)[C@@H](C)O)C(=O)N[C@@H](CC(C)C)C(=O)N[C@@H](CCC(N)=O)C(=O)N[C@@H](CCC(N)=O)C(=O)NCC(N)=O [Compound 4057] (Ac-QNYQPLDELDK(X1)TL[Phe(4-COOH)]DQFMLQQG-NH2) | 110 | 15.3 |
